Experimental data from patent US20070275888A1.
No constants are given. Whether binding was seen depends on the method and setting. For part of these data: Binding seen in cells or lysates may run through a third protein. Some results given as binding are weak or reduced against the parent protein; the word gives no strength. Sequences can lack the tags named with a protein.

Experiments:
[1] = target: T1, SEMA4B protein on the cell surface (SEMA4B/H358, NCI-H358, NCI-H2228 cells) (human) (UniProt Q9NPR2); experiment: flow cytometry (FACScan) on NCI-H358 and SEMA4B/H358 cells, Alexa488 anti-human IgG
T1 sequence: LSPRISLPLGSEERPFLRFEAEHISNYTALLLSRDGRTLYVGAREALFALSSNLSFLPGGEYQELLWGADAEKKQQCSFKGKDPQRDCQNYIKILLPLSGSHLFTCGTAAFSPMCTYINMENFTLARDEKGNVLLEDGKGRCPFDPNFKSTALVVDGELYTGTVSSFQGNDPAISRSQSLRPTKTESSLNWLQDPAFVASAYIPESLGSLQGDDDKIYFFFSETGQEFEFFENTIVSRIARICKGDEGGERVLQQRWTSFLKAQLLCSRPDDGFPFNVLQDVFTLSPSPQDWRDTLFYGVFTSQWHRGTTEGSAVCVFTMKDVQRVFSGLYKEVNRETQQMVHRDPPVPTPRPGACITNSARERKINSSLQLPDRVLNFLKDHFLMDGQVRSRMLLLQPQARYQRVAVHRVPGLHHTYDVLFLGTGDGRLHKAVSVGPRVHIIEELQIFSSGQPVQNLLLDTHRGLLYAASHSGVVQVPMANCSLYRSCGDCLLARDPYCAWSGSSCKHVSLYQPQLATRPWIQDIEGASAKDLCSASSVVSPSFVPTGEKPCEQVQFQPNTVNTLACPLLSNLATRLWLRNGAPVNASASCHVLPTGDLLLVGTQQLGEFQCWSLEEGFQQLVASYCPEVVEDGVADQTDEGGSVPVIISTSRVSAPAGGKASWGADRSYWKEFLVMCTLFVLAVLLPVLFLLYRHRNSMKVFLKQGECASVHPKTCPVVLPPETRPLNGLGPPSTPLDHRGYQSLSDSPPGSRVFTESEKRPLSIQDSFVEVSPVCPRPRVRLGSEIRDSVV

[2] = target: T2, SEMA4B protein tagged with 3xFLAG at the C terminus (human) (UniProt Q9NPR2); experiment: co-precipitation with Protein G-Sepharose; western blot
T2 sequence: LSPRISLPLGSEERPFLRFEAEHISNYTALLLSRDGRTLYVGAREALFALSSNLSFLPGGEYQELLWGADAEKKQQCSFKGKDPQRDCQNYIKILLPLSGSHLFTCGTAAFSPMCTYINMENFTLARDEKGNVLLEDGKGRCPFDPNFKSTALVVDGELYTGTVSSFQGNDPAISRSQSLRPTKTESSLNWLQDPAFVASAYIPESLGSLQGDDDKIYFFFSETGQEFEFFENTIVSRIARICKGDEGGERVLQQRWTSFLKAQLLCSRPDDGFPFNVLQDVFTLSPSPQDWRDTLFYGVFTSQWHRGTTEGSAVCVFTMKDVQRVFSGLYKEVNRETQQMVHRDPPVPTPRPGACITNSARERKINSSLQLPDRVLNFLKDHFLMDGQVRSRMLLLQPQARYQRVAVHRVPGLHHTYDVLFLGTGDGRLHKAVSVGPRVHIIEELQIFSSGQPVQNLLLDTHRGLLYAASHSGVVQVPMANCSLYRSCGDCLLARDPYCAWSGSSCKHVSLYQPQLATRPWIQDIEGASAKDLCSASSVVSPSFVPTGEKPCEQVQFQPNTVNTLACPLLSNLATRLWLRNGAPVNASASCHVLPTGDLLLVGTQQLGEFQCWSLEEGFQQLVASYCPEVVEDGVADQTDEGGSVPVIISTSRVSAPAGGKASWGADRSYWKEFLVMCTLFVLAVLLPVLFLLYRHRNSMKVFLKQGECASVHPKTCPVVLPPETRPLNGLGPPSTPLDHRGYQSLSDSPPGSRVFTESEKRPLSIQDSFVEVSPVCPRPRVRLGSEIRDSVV

[3] = target: T2, SEMA4B protein tagged with 3xFLAG at the C terminus (human); experiment: co-precipitation with Protein G-Sepharose from extract of NCI-H358 expressing SEMA4B-3xFLAG; western with AS-2591 or anti-FLAG M2

binding [1]: binds
binding [2]: binds
binding [3]: binds
B1: recombinant Plexin B1/Fc fused protein (extracellular domain of Plexin B1 with the human Fc domain at the C terminus) (Fc fusion, not shown: a dimerising Fc or GST)
chain: LQPLPPTAFTPNGTYLQHLARDPTSGTLYLGATNFLFQLSPGLQLEATVSTGPVLDSRDCLPPVMPDECPQAQPTNNPNQLLLVSPGALVVCGSVHQGVCEQRRLGQLEQLLLRPERPGDTQYVAANDPAVSTVGLVAQGLAGEPLLFVGRGYTSRGVGGGIPPITTRALWPPDPQAAFSYEETAKLAVGRLSEYSHHFVSAFARGASAYFLFLRRDLQAQSRAFRAYVSRVCLRDQHYYSYVELPLACEGGRYGLIQAAAVATSREVAHGEVLFAAFSSAAPPTVGRPPSAAAGASGASALCAFPLDEVDRLANRTRDACYTREGRAEDGTEVAYIEYDVNSDCAQLPVDTLDAYPCGSDHTPSPMASRVPLEATPILEWPGIQLTAVAVTMEDGHTIAFLGDSQGQLHRVYLGPGSDGHPYSTQSIQQGSAVSRDLTFDGTFEHLYVMTQSTLLKVPVASCAQHLDCASCLAHRDPYCGWCVLLGRCSRRSECSRGQGPEQWLWSFQPELGCLQVAAMSPANISREETREVFLSVPDLPPLWPGESYSCHFGEHQSPALLTGSGVMCPSPDPSEAPVLPRGADYVSVSVELRFGAVVIAKTSLSFYDCVAVTELRPSAQCQACVSSRWGCNWCVWQHLCTHKASCDAGPMVASHQSPLVSPDPPARGGPSPSPPTAPKALATPAPDTLPVEPGAPSTATASDISPGASPSLLSPWGPWAGSGSISSPGSTGSPLHEEPSPPSPQNGPGTAVPAPTDFRPSATPEDLLASPLSPSEVAAVPPADPGPEALHPTVPLDLPPATVPATTFPGAMGSVKPALDWLTREGGELPEADEWTGGDAPAFSTSTLLSGDGDSAELEGPPAPLILPSSLDYQYDTPGLWELEEATLGASSCPCVESVQGSTLMPVHVEREIRLLGRNLHLFQDGPGDNECVMELEGLEVVVEARVECEPPPDTQCHVTCQQHQLSYEALQPELRVGLFLRRAGRLRVDSAEGLHVVLYDCSVGHGDCSRCQTAMPQYGCVWCEGERPRCVTREACGEAEAVATQCPAPLIHSVEPLTGPVDGGTRVTIRGSNLGQHVQDVLGMVTVAGVPCAVDAQEYEVSSSLVCITGASGEEVAGATAVEVPGRGRGVSEHDFAYQDPKVHSIFPARGPRAGGTRLTLNGSKLLTGRLEDIRVVVGDQPCHLLPEQQSEQLRCETSPRPTPATLPVAVWFGATERRLQRGQFKYTLDPNITSAGPTKSFLSGGREICVRGQNLDVVQTPRIRVTVVSRMLQPSQGLGRRRRVVPETACSLGPSCSSQQFEEPCHVNSSQLITCRTPALPGLPEDPWVRVEFILDNLVFDFATLNPTPFSYEADPTLQPLNPEDPTMPFRHKPGSVFSVEGENLDLAMSKEEVVAMIGDGPCVVKTLTRHHLYCEPPVEQPLPRHHALREAPDSLPEFTVQMGNLRFSLGHVQYDGES
